Source: paper PMC7403151
Results are given in words; binding and its absence hold for the method and conditions named. In cells and extracts the contact can be indirect. Some results given as binding are weak or reduced against the parent protein; the word gives no strength.

Biological target: T1, CD133 (human (endogenous in A549/A400)) (UniProt O43490)
T1 sequence: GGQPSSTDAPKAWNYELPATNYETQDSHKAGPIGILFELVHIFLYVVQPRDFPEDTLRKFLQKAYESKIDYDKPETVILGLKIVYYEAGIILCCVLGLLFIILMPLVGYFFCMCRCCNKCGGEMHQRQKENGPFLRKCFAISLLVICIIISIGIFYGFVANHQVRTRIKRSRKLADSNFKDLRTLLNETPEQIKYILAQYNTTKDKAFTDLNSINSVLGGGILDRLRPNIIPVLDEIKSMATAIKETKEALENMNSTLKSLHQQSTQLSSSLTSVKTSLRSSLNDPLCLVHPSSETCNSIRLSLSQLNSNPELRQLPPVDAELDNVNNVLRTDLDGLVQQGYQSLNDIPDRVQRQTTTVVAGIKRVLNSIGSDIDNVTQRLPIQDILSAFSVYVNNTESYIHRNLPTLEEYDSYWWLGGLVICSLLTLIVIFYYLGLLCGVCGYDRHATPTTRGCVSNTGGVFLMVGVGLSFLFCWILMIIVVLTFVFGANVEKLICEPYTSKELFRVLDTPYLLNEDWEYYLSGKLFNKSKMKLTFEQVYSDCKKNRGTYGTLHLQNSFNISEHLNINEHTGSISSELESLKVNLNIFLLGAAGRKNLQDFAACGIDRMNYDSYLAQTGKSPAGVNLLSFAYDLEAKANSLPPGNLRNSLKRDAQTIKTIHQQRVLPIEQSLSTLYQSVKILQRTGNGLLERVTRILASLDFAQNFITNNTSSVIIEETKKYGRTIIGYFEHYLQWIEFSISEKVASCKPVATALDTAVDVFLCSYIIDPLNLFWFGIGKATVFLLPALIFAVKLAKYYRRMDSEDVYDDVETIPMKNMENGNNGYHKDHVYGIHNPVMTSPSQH
Assay: co-IP; 1 mg total protein of A549/A400 cell lysate after treatment with GMI and chloroquine for 24 h; pre-cleared with Protein A/G agarose; 2 ug anti-CD133 or anti-LC3B antibody overnight at 4 C; Protein A/G agarose; Western blot

## p62 (from UniProt Q13501 1-440)
  binding: binds
